Results: patent publication US10406086B2, “Moisturizer and cosmetic including the same” (AJINOMOTO CO., INC., priority 2015, dated 2019)
Some results were stated once for a whole list of compounds, not compound by compound.

System: filaggrin gene
Experiment: Filaggrin gene expression test by acyl valines or acyl alanines (real time PCR, 24 hours)
Assay type: cell-based, human
Settings: 10 or 500 μM, in words
Procedure: Human normal epidermal keratinocytes NHEK (NB) (manufactured by KURABO INDUSTRIES LTD.) were precultured with HuMedia-KG2 (manufactured by KURABO INDUSTRIES LTD.) and the precultured human normal epidermal keratinocytes were adjusted in a concentration of 15×10^4 cells/mL. After adjusting the concentration, 2 mL of the culture solution (that is, 30×10^4 cells/well) was poured to a plate having 6 wells and the poured culture solution was cultivated for 1 day. […] C12Ala), decanoyl-alanine (Example 21: C10Ala), octanoyl-alanine (Example 22: C8Ala), hexanoyl-alanine (Example 23: C6Ala), and butanoyl-alanine (Example 24: C4Ala)) were added to the wells so that each of the samples has the concentration illustrated in respective graphs and the added samples were reacted for 24 hours. After the reaction, entire RNA was extracted from the cells and subjected to reverse transcription. The amplified amounts of the target gene (filaggrin) were measured by real time PCR (n=2). […] GAPDH was used as a corrected gene. Calculation was carried out using a comparative CT method. TaqMan (registered trademark) Gene Expression was used as a primer and a probe and FAM was used as a fluorescent dye. The following evaluation was carried out depending on the amplified amounts. The results are listed in Table 2 and 3 and illustrated in FIGS. 4 and 5.

Structure (SMILES): CCCCCCCCCCCC(=O)N[C@@H](C)C(=O)O [Example 20, lauroyl-alanine]
- amplification of the filaggrin gene: can amplify the filaggrin gene
